Results as given in PubChem BioAssay AID504834 (National Center for Advancing Translational Sciences (NCATS), 2011).
Screen size: about 320,000 compounds; about 22,000 (6.9%) were called active. The inconclusive results got no clear call from the source; some entries with a clear call stand among them for comparison. Calls follow the shape of the dose curve; as a rule, active = well fitted inhibition curve with a large enough effect; inconclusive = small, poorly fitted or top-dose-only effect, or another doubt; inactive = no such curve, though single readings can be large or run the other way. A potency beside an inconclusive call is a rough fit, not a confirmed value.
Potency is read from the fitted curve at half-maximal effect.

Experiment: Primary qHTS for delayed death inhibitors of the malarial parasite plastid, 96 hour incubation
Conditions: P. falciparum luciferase reporter growth; series mostly up to 28.7 µM
Summary of the method: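 Plates of compound plus infected erythrocytes (2% hematocrit, 0.05% parasitemia final) incubate 96 hours, 37 C, 5% CO2. Detection reagent added; reduced luminescence from the parasites' luciferase reporter flags inhibition.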
For `O=C(CSc1nnc(Nc2ccccc2)s1)NN1C(=O)NC2(CCCCC2)C1=O`, the Potency was “inactive”. In the case of `N#Cc1ccccc1OCC(=O)N1CCc2ccccc2C1`, the Potency is reported as inconclusive: 18.5 µM [inhibitor, single point]. For `CC(C)(Oc1ccc(Cl)cc1)C(=O)NCC(c1ccco1)N1CCCCC1` (stereo not drawn), the Potency was inconclusive: 18.5 µM [inhibitor, single point]. For `CCCN(CC(=O)Nc1ccccc1OC)C(=O)CCC(=O)c1ccc(Cl)s1`, the Potency was inconclusive: 10.4 µM [inhibitor, partial curve]. For `N#CC1=C(Nc2ccccc2)SC=C(c2ccc(Br)cc2)N=C1N1CCOCC1`, the Potency was inconclusive: 18.5 µM [inhibitor, single point]. For `CC(C)(C)c1ccc(-c2nc3cc(N)ccc3o2)cc1`, the Potency was inconclusive: 14.7 µM [inhibitor, single point]. With `CCOC(=O)N1CCN(C2=Nc3cccc4cccc2c34)CC1` the Potency was inconclusive: 5.86 µM [inhibitor, partial curve, poor fit]. With `CCc1ccc(-c2cc(C(=O)O)c3ccccc3n2)s1` the Potency was inconclusive: 10.4 µM [inhibitor, partial curve, poor fit]. For `CNC(=S)N1N=C(c2ccc(C)cc2)CC1c1ccc(Cl)cc1` (stereo not drawn), the Potency was active: 8.28 µM. In the case of `CCC1Sc2ccc(S(=O)(=O)CCC(=O)N3CCc4ccccc43)cc2NC1=O` (stereo not drawn), the Potency is reported as “inactive”. With `Cc1c(Br)c([N+](=O)[O-])nn1CC(=O)Nc1ccc2nc3n(c(=O)c2c1)CCCC3` the Potency was “inactive”. With `CCNC(=S)N(Cc1cc2c(C)ccc(C)c2[nH]c1=O)C1CCCC1` the Potency was inconclusive: 7.38 µM [inhibitor, partial curve]. For `COC(=O)c1cc(O)c(O)c(O)c1`, the Potency was inconclusive: 20.8 µM [inhibitor, partial curve, poor fit]. In the case of `Cc1c(NC(=O)C2CCCN2S(=O)(=O)c2ccccc2)c(=O)n(-c2ccccc2)n1C` (stereo not drawn), the Potency is reported as “inactive”. For `CCCC(=O)N(CCN(Cc1ccccc1)C(=O)CCC)Cc1ccccc1`, the Potency was inconclusive: 9.28 µM [inhibitor, partial curve, poor fit]. In the case of `Fc1cccc(Nc2nc3ccccc3n3cnnc23)c1`, the Potency is reported as inconclusive: 18.5 µM [inhibitor, single point]. In the case of `Cc1ccn2c(C(=O)N/N=C/c3ccc(CNC(=O)C(=O)Nc4ccc(C)c(C)c4)o3)c(C)nc2c1`, the Potency is reported as “inactive”. For `CCOc1cccc(C(=O)NC(=S)Nc2ccc(Cl)cc2C(=O)O)c1`, the Potency was “inactive”. For `CCOc1ccc(CCNC(=O)c2ccc3ccccc3n2)cc1OCC`, the Potency was inconclusive: 10.4 µM [inhibitor, single point]. In the case of `COc1cccc(CCNC(=O)c2ccc(C#N)cc2)c1`, the Potency is reported as “inactive”. For `CNC(=O)c1ccsc1NC(=O)c1ccc(S(=O)(=O)N2CCOCC2)cc1`, the Potency was inconclusive: 0.37 µM [inhibitor, full curve, poor fit]. In the case of `O=C1CSc2ccccc2N1Cc1ccc(F)cc1`, the Potency is reported as inconclusive: 11.7 µM [inhibitor, single point]. In the case of `C=C(C)c1cccc(C(C)(C)NC(=O)NCc2ccncc2)c1`, the Potency is reported as inconclusive: 9.28 µM [inhibitor, partial curve]. For `Cc1ccc(S(=O)(=O)[N-]c2nc3ccccc3nc2-n2cc[n+](Cc3ccccc3)c2)cc1`, the Potency was active: 1.47 µM. In the case of `Cc1cc(NC(=O)NC(=O)c2cccc(OC(F)(F)C(F)F)c2)n[nH]1`, the Potency is reported as inconclusive: 18.5 µM [inhibitor, single point]. In the case of `O=C1c2ccccc2NC(c2ccc3c(c2)OCO3)N1O` (stereo not drawn), the Potency is reported as active: 0.37 µM. In the case of `N#C/C(=C\c1ccccc1)C(=O)N1CCN(c2ccccc2F)CC1`, the Potency is reported as inconclusive: 11.7 µM [inhibitor, single point]. For `CCCOc1ccc(N2CC(C(=O)Nc3ccccc3C(=O)NCc3ccco3)CC2=O)cc1` (stereo not drawn), the Potency was “inactive”. For `O=C(O)[C@H]1C[C@@H]1[C@H](NP(=O)(c1ccccc1)c1ccccc1)c1ccccc1`, the Potency was inconclusive: 10.4 µM [inhibitor, partial curve, poor fit]. For `NC1=NC2(CCCCC2)N=C(Nc2ccc(Br)cc2)N1`, the Potency was inconclusive: 0.037 µM [inhibitor, full curve, poor fit]. With `COc1ccc(Cl)cc1S(=O)(=O)N(C)CC(=O)N1CCOCC1` the Potency was “inactive”. For `Cc1cccc2c1NC(=O)C21N2CCCC2C(C(=O)c2ccc3ccccc3c2)C12C(=O)Nc1ccccc12` (stereo not drawn), the Potency was inconclusive: 13.1 µM [inhibitor, single point]. In the case of `CCc1ccc(-c2csc(NC(=O)c3cccnc3)n2)cc1`, the Potency is reported as inconclusive: 18.5 µM [inhibitor, single point]. With `COC(=O)c1ccc(C(C2C(=O)CC(C)(C)CC2=O)C2C(=O)CC(C)(C)CC2=O)cc1` the Potency was inconclusive: 0.415 µM [inhibitor, full curve]. For `C=CCNc1nc2c3ccccc3n(C(C)=O)c2s1`, the Potency was inconclusive: 9.28 µM [inhibitor, partial curve]. With `CCOc1ccc(C2/C(=C(\O)c3ccc4c(c3)OCCO4)C(=O)C(=O)N2CCN2CCOCC2)cc1OCC` (stereo not drawn) the Potency was inconclusive: 18.5 µM [inhibitor, single point]. For `COc1ccc(C(=O)Nc2ccnn2C2CCN(Cc3ccncc3)CC2)cc1`, the Potency was inconclusive: 18.5 µM [inhibitor, partial curve, poor fit]. With `O=C1NNC(c2ccccc2)=N/C1=C\c1ccc(Cl)cc1` the Potency was active: 8.28 µM. In the case of `Cc1ccc(C(=O)NCCn2ccc3ccccc32)cc1[N+](=O)[O-]`, the Potency is reported as “inactive”. For `COc1ccc(S(=O)(=O)N2CCOCC2)cc1NC(=O)CSc1nnc2c(n1)[nH]c1ccccc12`, the Potency was inconclusive: 0.0329 µM [inhibitor, full curve, poor fit]. In the case of `NS(=O)(=O)c1cccc(NC(=O)CCN2C(=O)C3CCCCC3C2=O)c1` (stereo not drawn), the Potency is reported as inconclusive: 8.28 µM [inhibitor, partial curve]. With `O=S(=O)(Nc1cccc(S(=O)(=O)N2CCCC2)c1)c1cccc(Br)c1` the Potency was “inactive”. In the case of `CC(=O)Nc1cc(Br)ccc1O`, the Potency is reported as inconclusive: 11.7 µM [inhibitor, partial curve]. With `CCOC(=O)N1CCC(NC(=O)C2CCCN(S(=O)(=O)c3cccc4nsnc34)C2)CC1` (stereo not drawn) the Potency was inconclusive: 1.17 µM [inhibitor, full curve, poor fit]. For `CC1(C)CC(=O)C2=C(C1)Oc1ncn(Cc3ccco3)c(=N)c1C2c1ccccc1` (stereo not drawn), the Potency was active: 6.57 µM. With `COCCn1c(-c2cccs2)nc2c(c(=O)c3ccccc3n2C)c1=O` the Potency was inconclusive: 0.657 µM [inhibitor, full curve, poor fit]. With `Cc1ccc(S(=O)(=O)N2[C@@H](c3cccc(Cl)c3)C(C(=O)O)=CC[C@H]2c2cccc(C)c2)cc1` the Potency was inconclusive: 11.7 µM [inhibitor, partial curve, poor fit]. With `COc1ccc(C2C(C#N)=C(SCC(=O)Nc3ccc(C)cc3)NC3=C2C(=O)CC(C)(C)C3)cc1` (stereo not drawn) the Potency was inconclusive: 0.522 µM [inhibitor, full curve, poor fit]. With `COc1c(C)cccc1C(=O)Nc1ccc(N2CCN(C(=O)c3ccccc3C)CC2)cc1` the Potency was “inactive”. With `CCc1noc(C)c1C(=O)NCCN1C(=O)S/C(=C\c2ccc(OC)cc2)C1=O` the Potency was “inactive”. For `CC(=O)N1CCOc2ccc(S(=O)(=O)NCCc3ccccc3)cc21`, the Potency was inconclusive: 18.5 µM [inhibitor, single point]. With `NC(=O)c1cc(C(=O)c2ccc(Cl)cc2)c[nH]1` the Potency was “inactive”. With `COc1cc(CNCCc2ccccc2F)ccc1OCc1ccc(Cl)nc1` the Potency was inconclusive: 18.5 µM [inhibitor, single point]. In the case of `O=C1CSC(=Nc2cccc([N+](=O)[O-])c2)N1`, the Potency is reported as active: 1.65 µM. In the case of `O=c1c(C(c2ccccc2)c2c(O)nc3n(c2=O)CCCS3)c(O)nc2n1CCCS2`, the Potency is reported as “inactive”. In the case of `CC(=O)Nc1cc(C(F)(F)F)ccc1Oc1cccc(Br)c1`, the Potency is reported as inconclusive: 10.4 µM [inhibitor, single point]. For `CC(C)[C@H]1C(=O)Nc2ccccc2N1C(=O)N[C@@H](Cc1ccccc1)C(=O)N[C@H](Cc1ccccc1)C(=O)O`, the Potency was inconclusive: 20.8 µM [inhibitor, single point]. For `C/C(=N\NC(=O)c1cc(Br)ccc1O)c1ccccn1`, the Potency was inconclusive: 18.5 µM [inhibitor, single point]. With `COc1ccccc1CC(=O)NN1C(=O)c2ccccc2C1=O` the Potency was “inactive”. For `Cc1nn(CCC(=O)NNC(=S)Nc2ccc(F)cc2)c(C)c1[N+](=O)[O-]`, the Potency was inconclusive: 9.28 µM [inhibitor, partial curve, poor fit]. In the case of `CC1CCN(Cc2nnnn2CCCC(=O)NCC(C)(C)N2CCOCC2)CC1`, the Potency is reported as inconclusive: 11.7 µM [inhibitor, single point]. In the case of `COc1ccc(-c2cc(C(=O)Nc3cc(S(=O)(=O)N4CCOCC4)ccc3N3CCOCC3)c3ccccc3n2)cc1`, the Potency is reported as inconclusive: 10.4 µM [inhibitor, single point]. With `COc1cccc(C2=CC(c3cc(OC)ccc3OC)n3nnnc3N2)c1` (stereo not drawn) the Potency was inconclusive: 2.62 µM [inhibitor, full curve, poor fit]. With `COC(=O)c1ccccc1NC(=O)CN(c1ccc(C)cc1)S(C)(=O)=O` the Potency was “inactive”. With `COc1ccccc1C(=O)NC(C)c1ccccc1` (stereo not drawn) the Potency was inconclusive: 5.22 µM [inhibitor, partial curve]. In the case of `CC(=O)c1ccc(NC(=O)COC(=O)c2ccc(F)cc2F)cc1`, the Potency is reported as “inactive”. For `Cc1ccc(C(=O)N/C(=C/c2ccco2)C(=O)NC2CCS(=O)(=O)C2)cc1` (stereo not drawn), the Potency was “inactive”. In the case of `COc1ccc2[nH]c3c(c2c1)CCNC3C1CC=C(C)CC1` (stereo not drawn), the Potency is reported as “inactive”.
